## Screening data, single-dose tests

A: 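Growth of Mycobacterium tuberculosis over 4 days (cholesterol / DPPC medium with tyloxapol); the read-out is not stated. Concentration: 50 µM. Higher reads as more growth inhibition (inferred: compounds with an IC50 in retests scored well above the rest). Of about 69,000 compounds tested this way, about 370 (0.54%) reached 50% or more in at least one test.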
B: 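Whole-cell growth test on Mycobacterium tuberculosis, read after 3 days in glucose-containing 7H9 medium; the read-out is not stated. Tested at 50 µM. The record gives no direction; compounds that gave an IC50 in retests scored well above the rest, so higher reads as more growth inhibition. Size under these conditions: about 69,000 compounds, about 760 of them at 50% or above in at least one test.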

Results are given as percent effect. How 0% and 100% were set is not recorded. Most values in the screen are low, and negative values occur. Compounds were drawn at random from those tested, without regard to their results. Two or more numbers in one place are separate tests of the same structure; such repeats can differ widely.

compound,A,B
O=C(c1c(O)cc(F)cc1F)N1CCc2cnccc21,-10.68%,-6.016%
N[C@@H]1CCN(Cc2ccc(-c3nc(-c4cccnc4)cc(=O)[nH]3)cc2)C1,8.408% and 6.91%,2.804%
O=C(N1CCCC(n2cncn2)C1)C1(c2cccc(F)c2)CCC1 (stereo not drawn),3.6%,-17.05%
CC(C)Cn1cc(C(=O)NC2CCS(=O)(=O)C2)c2ccccc2c1=O (stereo not drawn),-25.32%,9.837%
CCCc1nc(CN2CCCC2Cn2cncn2)cs1 (stereo not drawn),8.136%,16.24%
[H][C@]12CCCCN1CCC[C@H]2CNC(=O)Cn1ccc2ccccc21,16.87%,14.34%
COc1cc2cc(C(=O)NC(C)C(=O)O)n(C)c2c(OC)c1OC (stereo not drawn),-6.114% and -0.2116%,-5.302% and 7.483%
COc1c(CNCc2cccc(Cn3ccnc3)c2)c(C)nn1C,-0.3125%,19.77%
COc1ccc(CCNC(=O)NC2CC(=O)N(c3ccccc3)C2)cc1 (stereo not drawn),-65.78%,-53.24%
CC(C)CNC(=O)c1ccc2c(=O)n(-c3ccccc3)cnc2c1,-5.908% and -5.987%,-9.82%
c1ncn(CC2CN(Cc3nc(-c4ccsc4)no3)CCO2)n1 (stereo not drawn),-18.22%,-0.1132%
Cc1ccccc1CN1CCN(C(=O)CN2CCOC2=O)CC1,-11.1% and 0.6437%,-6.296%
CC(C)(NCCCOc1ccc(C#N)cc1)c1nccs1,-5.046%,-1.85%
Cc1csc(N2CCCN(C(=O)C(C)n3cncn3)CC2)n1 (stereo not drawn),7.413%,-4.449% and -4.295%
Cc1ncccc1C(=O)N1CCC2(CCc3ccccc3C(=O)N2)C1 (stereo not drawn),0.1041% and -15.4%,12.53%
CC(C)c1noc(CN(C)C(=O)C2COc3ccccc3C2)n1 (stereo not drawn),-1.472% and 7.375%,18.88%
CCN1CCN(C2CCN(Cc3nc(C4CC4)no3)CC2)C1=O,6.907%,8.265%
O=C1COc2ccccc2N1CCCn1cnnn1,4.518%,11.59%
C=C(C)CN1CCC(Nc2nc(C)ns2)CC1,24.44%,17.69%
CCC1CCCN(Cc2nc3ccccc3c(=O)[nH]2)C1 (stereo not drawn),17.58%,33.38% and 31.08%
Cc1cc(CN(C)C2CCCN(c3cccnn3)C2)no1 (stereo not drawn),30.3%,39.45%
COc1ccccc1C(C)NC(=O)N1CCC(n2cncn2)CC1 (stereo not drawn),12.51%,-21.47% and -0.9427%
CCCc1cc(=O)[nH]c2nnc(SCC(N)=O)n12,-43.42%,-44.16%
O=C(CN1CCCC(c2noc(C3CC3)n2)C1)N1CCCC1 (stereo not drawn),-17.75%,0.3739% and -25.76%
Cc1nc(CN2CCN(C3CCOC3)Cc3cccnc32)cs1.O=C(O)C(F)(F)F.O=C(O)C(F)(F)F.O=C(O)C(F)(F)F (stereo not drawn),-12.02% and 4.811%,8.228% and -9.33%
O=C1N(c2ccsc2)CCC12CCCN(c1ccccn1)C2 (stereo not drawn),0.3264%,15.86%
CC(=O)N1CCC2(CC1)C(=O)N(C)c1c(F)cccc12,-9.251%,-12.67% and -1.607%
Cc1ccc(F)c(NCC(C)(C)S(C)(=O)=O)c1,6.884%,17.12%
Cc1cccc(-c2noc(CNC(C)Cn3cc(C)cn3)n2)c1 (stereo not drawn),22.87%,34.65%
CC(O)(CNC(=O)c1cccnc1-n1cccn1)c1ccsc1 (stereo not drawn),-6.525%,32.57%
CS(=O)(=O)NC[C@H]1Cn2c(-c3ccccc3)cnc2CO1,7.628%,12.43% and 17.94%
Cc1nc2c(N3CCC(O)(Cn4ccnc4)CC3)ncnc2o1,-24.58%,-24.59%
CC(C)c1nc(COc2cccc3c2NC(=O)CO3)cs1,-14.14%,12.1% and 8.187%
CCN(C)c1ncnc2c1CCN(C(=O)c1ccno1)CC2,-0.2182%,-2.399%
CCCN1CC2(CCN(C)CC2)CC1C(=O)NCCn1cccn1 (stereo not drawn),-6.777%,9.264%
CN1CCC/C1=N\S(=O)(=O)c1ccc(NC(=O)c2ccc(F)cc2)cc1,4.785%,1.194%
CNc1nc(C)c(C(=O)NCC(C)(C)N2CCCCC2)s1,-17.01%,-20.06%
O=C(O)C(F)(F)F.[H][C@@]12CCN(Cc3ccc4c(c3)OCO4)C[C@]1([H])O[C@@H](C(=O)NCC1CC1)C2,0.6371%,5.128%
Cc1cc(C)n(C2CCCN(C(=O)c3ccc(N(C)C)nc3)C2)n1 (stereo not drawn),1.39%,17.93%
CC(C)C(Sc1nnc(NC2CC2)s1)C(=O)NCc1cccnc1 (stereo not drawn),-7.652%,-1.382% and -29.48%
CN(C)CCNC(=O)c1ccc(OC2CCN(C3CCC3)CC2)c(Cl)c1,13.25%,3.893% and 18.78%
CCOc1ncccc1NC(=O)NC1CCN(S(C)(=O)=O)CC1,-8.93%,-9.764%
O=C(O)C(F)(F)F.c1c2c(nn1CC1CC1)C(CNC1CCOCC1)OCC2 (stereo not drawn),11.45%,-3.488% and -3.803%
COCCN1CCC2(CCN(CC3CC3)CC2)C1=O.O=C(O)C(F)(F)F,6.281%,-4.857% and 2.384%
CCN(CC)C(=O)c1ccc(NC(=O)CNc2ccc(Br)cc2F)cc1,-7.656%,-10.31% and -3.126%
O=C(CCN1CCCC1c1cccs1)N1CCc2sccc2C1 (stereo not drawn),11.76%,17.96%
CC(C)c1cc(Br)ccc1NC(=O)NC(C)(CO)CO,-10.26% and -1.396%,22.16%
CCN1CC2(CC1=O)CN(Cc1cnn(C)c1)CCN(C(=O)C(C)C)C2.O=C(O)C(F)(F)F (stereo not drawn),10.22% and 70.11%,-11.32%
Cc1ccn(-c2ccccc2NCc2cscn2)n1,-16.95%,35.28% and 13.29%
O=S(=O)(C1CC1)N1CCC(Cn2cccn2)CC1,-4.911%,16.21%
CC(C)n1nc(Cn2cccn2)c2c1CN(C1CCOCC1)C2.O=C(O)C(F)(F)F,-20.64%,-2.207%
CC(NC(=O)NCCc1cnn(C)c1)c1ccc(Cl)s1 (stereo not drawn),-10.81%,-0.1971%
CCNC(=O)N1CCc2ccc(NC(=O)C(C)c3ccsc3)cc21 (stereo not drawn),2.71%,-7.043%
COC(=O)c1ccnn1COc1ccc(Cl)cc1,-13.37%,-17.1% and 4.021%
CCN(Cc1c(C)nn(CC)c1C)S(=O)(=O)c1cnn(C)c1,9.253%,19.96%
[H][C@@]12C[C@H](C(=O)N3CCCC3)[C@@]([H])(CN(C(=O)NCCc3ccccc3)C1)O2,-18.05%,-16.41%
COc1cc(CN(C)Cc2cccnc2)c(SC)cc1OC,23.32%,13.79% and 3.389%
Cc1nc(N2CCOCC2)ncc1-c1cc(O)nc(N2CCCC2)n1,8.377%,23.63%
O=C(Nc1nccs1)C1CCCN1Cc1ccccn1 (stereo not drawn),-0.5422%,24.19%
CN(C)c1ccc(NC(=O)NCc2ccc(Cl)s2)cn1,-21.74%,-6.164%
CCCc1nc(C)cc(N2CCC3(CCC(=O)N(CCO)C3)CC2)n1,-2.259%,91.38% and -14.37%
CC1COCCN1Cc1nc(-c2cccc(C(F)(F)F)c2)no1 (stereo not drawn),-7.232%,1.924% and 5.358%
Cc1occc1C(=O)NCC(=O)NCCOc1cccc(Cl)c1,9.098% and -0.05662%,23.7%

6 of the entries, repeated:

| compound | A | B |
|---|---|---|
| `CNc1nc(C)c(C(=O)NCC(C)(C)N2CCCCC2)s1` | -17.01% | -20.06% |
| `Cc1nc(CN2CCN(C3CCOC3)Cc3cccnc32)cs1.O=C(O)C(F)(F)F.O=C(O)C(F)(F)F.O=C(O)C(F)(F)F` (stereo not drawn) | -12.02% and 4.811% | 8.228% and -9.33% |
| `CCN1CC2(CC1=O)CN(Cc1cnn(C)c1)CCN(C(=O)C(C)C)C2.O=C(O)C(F)(F)F` (stereo not drawn) | 10.22% and 70.11% | -11.32% |
| `Cc1nc2c(N3CCC(O)(Cn4ccnc4)CC3)ncnc2o1` | -24.58% | -24.59% |
| `Cc1nc(N2CCOCC2)ncc1-c1cc(O)nc(N2CCCC2)n1` | 8.377% | 23.63% |
| `CC(C)Cn1cc(C(=O)NC2CCS(=O)(=O)C2)c2ccccc2c1=O` (stereo not drawn) | -25.32% | 9.837% |

The values are deposited in ChEMBL (CHEMBL3988442, “University of Dundee, Small-Polar-MMV Screening Library” (2021)).